Consider six molecules from paper PMC12259267, “Disruption of the KLHL37–N-Myc complex restores N-Myc degradation and arrests neuroblastoma growth in mouse models” (The Journal of Clinical Investigation, 2025).

Chains of the proteins cited; added tags and fusions are not shown. Lines headed by an entry give the natural chain unless they say otherwise; changes in a name come on top. A line that says so, or that is headed by a name, gives the form on record, which may keep a tag or linker. Residues count along the entry.
UniProt P01106: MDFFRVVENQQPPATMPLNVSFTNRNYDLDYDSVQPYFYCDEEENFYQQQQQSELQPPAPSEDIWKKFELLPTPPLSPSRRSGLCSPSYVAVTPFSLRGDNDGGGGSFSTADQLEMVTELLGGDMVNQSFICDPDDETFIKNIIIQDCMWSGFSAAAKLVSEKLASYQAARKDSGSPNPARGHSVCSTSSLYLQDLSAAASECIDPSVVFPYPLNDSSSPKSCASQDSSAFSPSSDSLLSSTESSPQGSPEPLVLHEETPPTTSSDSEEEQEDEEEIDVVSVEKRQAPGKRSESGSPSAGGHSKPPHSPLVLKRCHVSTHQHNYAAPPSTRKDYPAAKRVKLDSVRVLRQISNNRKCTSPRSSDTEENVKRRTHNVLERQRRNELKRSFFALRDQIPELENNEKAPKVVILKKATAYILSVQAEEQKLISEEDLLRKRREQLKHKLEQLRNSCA
UniProt P04198: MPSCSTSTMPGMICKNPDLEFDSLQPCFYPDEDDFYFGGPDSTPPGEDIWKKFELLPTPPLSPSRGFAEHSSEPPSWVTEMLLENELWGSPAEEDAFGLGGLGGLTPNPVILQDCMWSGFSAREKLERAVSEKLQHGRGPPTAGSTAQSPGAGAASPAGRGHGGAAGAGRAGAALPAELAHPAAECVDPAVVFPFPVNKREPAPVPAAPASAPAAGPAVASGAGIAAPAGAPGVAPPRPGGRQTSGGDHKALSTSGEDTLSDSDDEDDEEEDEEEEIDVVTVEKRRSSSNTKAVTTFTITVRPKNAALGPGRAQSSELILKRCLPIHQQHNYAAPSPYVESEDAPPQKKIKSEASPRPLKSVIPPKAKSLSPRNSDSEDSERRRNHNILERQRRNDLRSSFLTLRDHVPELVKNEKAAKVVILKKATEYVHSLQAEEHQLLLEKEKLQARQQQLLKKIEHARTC
N-Myc 1–89 aa segment: residues 1-89 of P04198
N-Myc 1–89 aa segment with T58 and S62 mutated (T58A/S62A) (P04198, form named): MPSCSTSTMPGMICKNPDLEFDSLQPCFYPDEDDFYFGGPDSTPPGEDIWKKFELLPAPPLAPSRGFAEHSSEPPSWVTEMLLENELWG

Assay [1] deals with recombinant GST-C-Myc protein (UniProt P01106). Nature of the assay: pull-down; in vitro co-IP: recombinant KLHL37-His incubated with GST fusion protein at RT (25°C) for 3 hours, then GST resin (preblocked with 1% BSA); IP: GST, IB: KLHL37; both purified.
Assay [2] concerns the target N-Myc-1-89aa-HA wild type (UniProt P04198). As to the kind of experiment: co-IP; cells transfected 48 h, lysed in RIPA buffer; lysate with IP beads (anti-Flag or anti-HA) at 4°C overnight; washed 5 times (50 mmol/L Tris-HCl, 150 mmol/L NaCl, 1% NP40, pH 8.0); immunoblot.
Assay [3] addresses N-Myc-1-89aa-HA T58A/S62A mutant (UniProt P04198). Described as above.
In assay [4] the target is N-Myc (overexpressed in HEK293T, Figure 4F) (UniProt P04198). As to the kind of experiment: co-IP; HEK-293T cells transfected 48 hours with plasmids overexpressing the proteins; RIPA lysis buffer; IP beads at 4°C overnight; immunoblotting.
Assay [5] addresses N-Myc 1–89 aa segment with T58 and S62 mutated (T58A/S62A) (UniProt P04198). Described as above.
The next assay has as its target N-Myc 1–89 aa segment (UniProt P04198). The assay is described as above.
The next assay concerns the target N-Myc-Flag wild type (UniProt P04198). As to the kind of experiment: co-IP; cells transfected 48 h, lysed in RIPA buffer; lysate with IP beads (anti-Flag or anti-HA) at 4°C overnight; washed 5 times (50 mmol/L Tris-HCl, 150 mmol/L NaCl, 1% NP40, pH 8.0); immunoblot.
The target in assay [6] is N-Myc-Flag T58A/S62A mutant (UniProt P04198). Described as above.
A further assay addresses N-Myc–Flag (UniProt P04198). As to the kind of experiment: co-IP; HEK-293T cells transfected 48 hours with plasmids overexpressing the proteins; RIPA lysis buffer; IP beads at 4°C overnight; immunoblotting.
In the next assay the target is recombinant GFP–C-Myc (UniProt P01106). Nature of the assay: MST; GFP–N-Myc or GFP–C-Myc at 200 nM in PBS-T (0.05% Tween 20); KLHL37-His serially diluted 16 times from 27.3 nM (N-Myc) or 7 μM (C-Myc); mixed 1:1; EC50 fitted; both purified.
Assay [7] deals with endogenous N-Myc (human (endogenous in SK-N-BE(2))) (UniProt P04198). Nature of the assay: proximity ligation; in situ PLA in SK-N-BE(2) cells with antibodies to KLHL37 and N-Myc; also after RTA-408 (1 μM) with MG132 (4 μM).

Results are given in words; binding and its absence hold for the method and conditions named. For some assays here: In cells and extracts the contact can be indirect. Some entries that bind do so weakly or less than the wild type. For some assays here: Tags and fused reporters may be left off the sequences shown.

B1: recombinant KLHL37-His protein (protein, UniProt O14682 1-589)
chain: MSVSVHENRKSRASSGSINIYLFHKSSYADSVLTHLNLLRQQRLFTDVLLHAGNRTFPCHRAVLAACSRYFEAMFSGGLKESQDSEVNFDNSIHPEVLELLLDYAYSSRVIINEENAESLLEAGDMLEFQDIRDACAEFLEKNLHPTNCLGMLLLSDAHQCTKLYELSWRMCLSNFQTIRKNEDFLQLPQDMVVQLLSSEELETEDERLVYESAINWISYDLKKRYCYLPELLQTVRLALLPAIYLMENVAMEELITKQRKSKEIVEEAIRCKLKILQNDGVVTSLCARPRKTGHALFLLGGQTFMCDKLYLVDQKAKEIIPKADIPSPRKEFSACAIGCKVYITGGRGSENGVSKDVWVYDTLHEEWSKAAPMLVARFGHGSAELKHCLYVVGGHTAATGCLPASPSVSLKQVEHYDPTINKWTMVAPLREGVSNAAVVSAKLKLFAFGGTSVSHDKLPKVQCYDQCENRWTVPATCPQPWRYTAAAVLGNQIFIMGGDTEFSACSAYKFNSETYQWTKVGDVTAKRMSCHAVASGNKLYVVGGYFGIQRCKTLDCYDPTLDVWNSITTVPYSLIPTAFVSTWKHLPS
Turning to B1, the binding result in [1] was “binds”.

B2: KLHL37-Flag (protein, UniProt O14682 1-589)
chain: MSVSVHENRKSRASSGSINIYLFHKSSYADSVLTHLNLLRQQRLFTDVLLHAGNRTFPCHRAVLAACSRYFEAMFSGGLKESQDSEVNFDNSIHPEVLELLLDYAYSSRVIINEENAESLLEAGDMLEFQDIRDACAEFLEKNLHPTNCLGMLLLSDAHQCTKLYELSWRMCLSNFQTIRKNEDFLQLPQDMVVQLLSSEELETEDERLVYESAINWISYDLKKRYCYLPELLQTVRLALLPAIYLMENVAMEELITKQRKSKEIVEEAIRCKLKILQNDGVVTSLCARPRKTGHALFLLGGQTFMCDKLYLVDQKAKEIIPKADIPSPRKEFSACAIGCKVYITGGRGSENGVSKDVWVYDTLHEEWSKAAPMLVARFGHGSAELKHCLYVVGGHTAATGCLPASPSVSLKQVEHYDPTINKWTMVAPLREGVSNAAVVSAKLKLFAFGGTSVSHDKLPKVQCYDQCENRWTVPATCPQPWRYTAAAVLGNQIFIMGGDTEFSACSAYKFNSETYQWTKVGDVTAKRMSCHAVASGNKLYVVGGYFGIQRCKTLDCYDPTLDVWNSITTVPYSLIPTAFVSTWKHLPS
On to B2, for which the binding result in [2] and in assay [3] was “binds” each time.

B3: WT KLHL37 (overexpressed in HEK-293T, Figures 4F and 4J) (protein, UniProt O14682 1-589)
chain: MSVSVHENRKSRASSGSINIYLFHKSSYADSVLTHLNLLRQQRLFTDVLLHAGNRTFPCHRAVLAACSRYFEAMFSGGLKESQDSEVNFDNSIHPEVLELLLDYAYSSRVIINEENAESLLEAGDMLEFQDIRDACAEFLEKNLHPTNCLGMLLLSDAHQCTKLYELSWRMCLSNFQTIRKNEDFLQLPQDMVVQLLSSEELETEDERLVYESAINWISYDLKKRYCYLPELLQTVRLALLPAIYLMENVAMEELITKQRKSKEIVEEAIRCKLKILQNDGVVTSLCARPRKTGHALFLLGGQTFMCDKLYLVDQKAKEIIPKADIPSPRKEFSACAIGCKVYITGGRGSENGVSKDVWVYDTLHEEWSKAAPMLVARFGHGSAELKHCLYVVGGHTAATGCLPASPSVSLKQVEHYDPTINKWTMVAPLREGVSNAAVVSAKLKLFAFGGTSVSHDKLPKVQCYDQCENRWTVPATCPQPWRYTAAAVLGNQIFIMGGDTEFSACSAYKFNSETYQWTKVGDVTAKRMSCHAVASGNKLYVVGGYFGIQRCKTLDCYDPTLDVWNSITTVPYSLIPTAFVSTWKHLPS
Turning to B3, the binding entry (in [4]; in assay [5]; in the assay with N-Myc 1–89 aa segment) was “binds” throughout.

B4: KLHL37-HA (protein, UniProt O14682 1-589)
chain: MSVSVHENRKSRASSGSINIYLFHKSSYADSVLTHLNLLRQQRLFTDVLLHAGNRTFPCHRAVLAACSRYFEAMFSGGLKESQDSEVNFDNSIHPEVLELLLDYAYSSRVIINEENAESLLEAGDMLEFQDIRDACAEFLEKNLHPTNCLGMLLLSDAHQCTKLYELSWRMCLSNFQTIRKNEDFLQLPQDMVVQLLSSEELETEDERLVYESAINWISYDLKKRYCYLPELLQTVRLALLPAIYLMENVAMEELITKQRKSKEIVEEAIRCKLKILQNDGVVTSLCARPRKTGHALFLLGGQTFMCDKLYLVDQKAKEIIPKADIPSPRKEFSACAIGCKVYITGGRGSENGVSKDVWVYDTLHEEWSKAAPMLVARFGHGSAELKHCLYVVGGHTAATGCLPASPSVSLKQVEHYDPTINKWTMVAPLREGVSNAAVVSAKLKLFAFGGTSVSHDKLPKVQCYDQCENRWTVPATCPQPWRYTAAAVLGNQIFIMGGDTEFSACSAYKFNSETYQWTKVGDVTAKRMSCHAVASGNKLYVVGGYFGIQRCKTLDCYDPTLDVWNSITTVPYSLIPTAFVSTWKHLPS
With B4, the binding entry (with N-Myc-Flag wild type; in assay [6]; with N-Myc–Flag) was “binds” in each case.

B5: KLHL37-His recombinant protein (protein, UniProt O14682 1-589)
chain: MSVSVHENRKSRASSGSINIYLFHKSSYADSVLTHLNLLRQQRLFTDVLLHAGNRTFPCHRAVLAACSRYFEAMFSGGLKESQDSEVNFDNSIHPEVLELLLDYAYSSRVIINEENAESLLEAGDMLEFQDIRDACAEFLEKNLHPTNCLGMLLLSDAHQCTKLYELSWRMCLSNFQTIRKNEDFLQLPQDMVVQLLSSEELETEDERLVYESAINWISYDLKKRYCYLPELLQTVRLALLPAIYLMENVAMEELITKQRKSKEIVEEAIRCKLKILQNDGVVTSLCARPRKTGHALFLLGGQTFMCDKLYLVDQKAKEIIPKADIPSPRKEFSACAIGCKVYITGGRGSENGVSKDVWVYDTLHEEWSKAAPMLVARFGHGSAELKHCLYVVGGHTAATGCLPASPSVSLKQVEHYDPTINKWTMVAPLREGVSNAAVVSAKLKLFAFGGTSVSHDKLPKVQCYDQCENRWTVPATCPQPWRYTAAAVLGNQIFIMGGDTEFSACSAYKFNSETYQWTKVGDVTAKRMSCHAVASGNKLYVVGGYFGIQRCKTLDCYDPTLDVWNSITTVPYSLIPTAFVSTWKHLPS
On to B5, for which the binding entry with recombinant GFP–C-Myc was “binds”.

B6: endogenous KLHL37 (protein, UniProt O14682 1-589)
chain: MSVSVHENRKSRASSGSINIYLFHKSSYADSVLTHLNLLRQQRLFTDVLLHAGNRTFPCHRAVLAACSRYFEAMFSGGLKESQDSEVNFDNSIHPEVLELLLDYAYSSRVIINEENAESLLEAGDMLEFQDIRDACAEFLEKNLHPTNCLGMLLLSDAHQCTKLYELSWRMCLSNFQTIRKNEDFLQLPQDMVVQLLSSEELETEDERLVYESAINWISYDLKKRYCYLPELLQTVRLALLPAIYLMENVAMEELITKQRKSKEIVEEAIRCKLKILQNDGVVTSLCARPRKTGHALFLLGGQTFMCDKLYLVDQKAKEIIPKADIPSPRKEFSACAIGCKVYITGGRGSENGVSKDVWVYDTLHEEWSKAAPMLVARFGHGSAELKHCLYVVGGHTAATGCLPASPSVSLKQVEHYDPTINKWTMVAPLREGVSNAAVVSAKLKLFAFGGTSVSHDKLPKVQCYDQCENRWTVPATCPQPWRYTAAAVLGNQIFIMGGDTEFSACSAYKFNSETYQWTKVGDVTAKRMSCHAVASGNKLYVVGGYFGIQRCKTLDCYDPTLDVWNSITTVPYSLIPTAFVSTWKHLPS
Take B6: the binding result in [7] was “binds”.
